Results deposited as PubChem BioAssay AID743448 (Peter MacCallum Cancer Centre, 2014)
Purpose: 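Test whether knock-downs sensitising to vorinostat hold across several colon lines but not etoposide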 (follow-up of hits). System: four human colon cancer cell lines: HCT116-VR (vorinostat-resistant HCT116 derivative), SW480, SW620 and LIM1215. Reagents: siRNA pool against human genes, 40 nM siRNA pool. Time to read-out: drug added two days after transfection, read one day later. Challenge: vorinostat 2.5 µM on one half of each plate, etoposide 5 µM on the other half. Cell line and drug panel: SW620 cells with vorinostat. Detection: 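Caspase luminescence and viability fluorescence, each expressed relative to mock transfection and also as robust z-scores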. Reading the numbers: caspase ratio to mock: higher = more caspase activity than mock; viability ratio to mock: higher = more live cells than mock. Hit rule: 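Hit means caspase ratio to mock at least 1.6, or viability ratio to mock at most 0.75; wells with strong death in the absence of drug get no call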. Calls: active = caspase or viability hit in this panel; inactive = no change, or unhealthy well.
Shown is a random part of the 106 reagents, in one setting of the screen. 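Calls are per line and drug panel including etoposide, not vorinostat-specific; gene picks needed hits in two or more extra lines with vorinostat versus etoposide.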 Further read-outs or replicates are left out here.

After knock-down of BDP1, the record shows caspase ratio to mock 1.46; viability ratio to mock 1.06; inactive.
HPCAL1 gave caspase ratio to mock 1.61; viability ratio to mock 1.02; active.
TGM5 gave caspase ratio to mock 1.03; viability ratio to mock 0.91; inactive.
THOC5 scored caspase ratio to mock 1.73; viability ratio to mock 0.94; active.
Silencing of POLR2J gave: caspase ratio to mock 1.46; viability ratio to mock 0.78; inactive.
With knock-down of NUP54, the record shows caspase ratio to mock 1.14; viability ratio to mock 0.82; inactive.
For KIR2DL1, the entry reads caspase ratio to mock 1.34; viability ratio to mock 1.1; inactive.
MAGOH gave caspase ratio to mock 1.19; viability ratio to mock 1.04; inactive.
Silencing of ANO9 resulted in: caspase ratio to mock 0.98; viability ratio to mock 0.82; inactive.
NFYA showed caspase ratio to mock 0.76; viability ratio to mock 0.84; inactive.
SH3GLB2 scored caspase ratio to mock 1.25; viability ratio to mock 0.95; inactive.
C1orf52 gave caspase ratio to mock 1.15; viability ratio to mock 1.01; inactive.
Silencing of CDK10 resulted in: caspase ratio to mock 1.86; viability ratio to mock 1.04; active.
DDX18 gave caspase ratio to mock 0.89; viability ratio to mock 0.96; inactive.
Depletion of PSMD13 gave: caspase ratio to mock 1.56; viability ratio to mock 0.82; inactive.
For SCRT2 the deposit lists caspase ratio to mock 1.28; viability ratio to mock 1.08; inactive.
For LCE2A the deposit lists caspase ratio to mock 2.5; viability ratio to mock 1.08; active.
After knock-down of CBX7 the results were caspase ratio to mock 1.82; viability ratio to mock 0.95; active.
ANKRD13C-DT scored caspase ratio to mock 1.23; viability ratio to mock 0.88; inactive.

Entries listed so far marked active:
HPCAL1 | caspase ratio to mock = 1.61; viability ratio to mock = 1.02; Outcome = active
THOC5 | caspase ratio to mock = 1.73; viability ratio to mock = 0.94; Outcome = active
CDK10 | caspase ratio to mock = 1.86; viability ratio to mock = 1.04; Outcome = active
LCE2A | caspase ratio to mock = 2.5; viability ratio to mock = 1.08; Outcome = active
CBX7 | caspase ratio to mock = 1.82; viability ratio to mock = 0.95; Outcome = active
